No constants are given. Whether binding was seen depends on the method and setting. In cells and extracts the contact can be indirect. Some results given as binding are weak or reduced against the parent protein; the word gives no strength. Sequences can lack the tags named with a protein. Blank lines part the entries; values can stand above or below the molecule they belong to.
Assays:
[1] = biological target: T1, cilia and flagella associated protein 53 (CFAP53), MYC-tagged (mouse) (UniProt Q9D439); assay: co-IP; HEK293T cells co-transfected with Myc-Cfap53 and Flag-Ift20, collected 48 h after transfection; IP with anti-MYC antibody; blots with anti-MYC and anti-FLAG
T1 sequence: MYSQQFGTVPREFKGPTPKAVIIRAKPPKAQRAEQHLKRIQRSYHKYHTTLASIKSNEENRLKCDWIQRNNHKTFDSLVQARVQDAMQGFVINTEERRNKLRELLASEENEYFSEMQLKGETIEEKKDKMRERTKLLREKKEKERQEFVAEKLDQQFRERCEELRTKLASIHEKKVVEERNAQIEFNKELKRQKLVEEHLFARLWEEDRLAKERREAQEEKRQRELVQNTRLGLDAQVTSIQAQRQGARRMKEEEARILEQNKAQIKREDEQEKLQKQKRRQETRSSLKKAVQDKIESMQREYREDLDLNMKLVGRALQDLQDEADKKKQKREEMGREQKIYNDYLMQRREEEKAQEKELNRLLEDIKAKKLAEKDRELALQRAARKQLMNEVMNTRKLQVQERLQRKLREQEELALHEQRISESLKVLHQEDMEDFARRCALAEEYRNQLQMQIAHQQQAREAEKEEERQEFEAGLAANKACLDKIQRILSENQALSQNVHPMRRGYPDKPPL

Sequences of proteins named here, by UniProt entry; tags and fusion partners are left off.
UniProt Q61025: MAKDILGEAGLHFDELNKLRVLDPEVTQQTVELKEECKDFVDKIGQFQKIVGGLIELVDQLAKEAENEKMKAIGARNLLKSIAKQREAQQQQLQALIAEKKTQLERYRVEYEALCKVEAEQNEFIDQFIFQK

[2] = biological target: T2, intraflagellar transport protein 88 (IFT88), GFP-tagged (mouse) (UniProt Q61371); assay: co-IP; HEK293T cells co-transfected, collected 48 h after transfection; lysed in ELB buffer (50 mM HEPES, 250 mM NaCl, 0.1% NP-40); IP with anti-GFP antibody overnight at 4°C, protein A-Sepharose; blots with anti-MYC and anti-GFP
T2 sequence: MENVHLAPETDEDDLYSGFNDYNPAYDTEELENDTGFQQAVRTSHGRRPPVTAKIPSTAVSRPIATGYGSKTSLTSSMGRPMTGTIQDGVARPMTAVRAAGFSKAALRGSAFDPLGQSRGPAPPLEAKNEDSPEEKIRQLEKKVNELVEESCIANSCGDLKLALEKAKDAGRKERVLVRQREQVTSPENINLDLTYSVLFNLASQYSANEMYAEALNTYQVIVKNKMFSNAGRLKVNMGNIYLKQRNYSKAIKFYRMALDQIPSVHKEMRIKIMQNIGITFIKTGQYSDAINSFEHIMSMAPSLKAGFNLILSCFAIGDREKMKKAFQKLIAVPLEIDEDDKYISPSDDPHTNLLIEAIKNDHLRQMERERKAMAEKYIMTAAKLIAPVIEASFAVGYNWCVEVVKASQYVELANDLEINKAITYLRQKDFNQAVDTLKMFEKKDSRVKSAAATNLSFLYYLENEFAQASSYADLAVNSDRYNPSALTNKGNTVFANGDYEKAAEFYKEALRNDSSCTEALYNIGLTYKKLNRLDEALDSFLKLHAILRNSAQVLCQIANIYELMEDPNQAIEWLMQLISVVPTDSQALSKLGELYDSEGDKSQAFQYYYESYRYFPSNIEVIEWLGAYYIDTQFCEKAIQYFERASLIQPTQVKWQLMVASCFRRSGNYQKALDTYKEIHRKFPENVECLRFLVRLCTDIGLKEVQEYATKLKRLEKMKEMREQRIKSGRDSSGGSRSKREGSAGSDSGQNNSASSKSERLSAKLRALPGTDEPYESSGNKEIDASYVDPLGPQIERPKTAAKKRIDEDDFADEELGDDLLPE

[3] = biological target: T3, coiled-coil domain containing 42 (CCDC42), GFP-tagged (mouse) (UniProt Q5SV66); assay: as above
T3 sequence: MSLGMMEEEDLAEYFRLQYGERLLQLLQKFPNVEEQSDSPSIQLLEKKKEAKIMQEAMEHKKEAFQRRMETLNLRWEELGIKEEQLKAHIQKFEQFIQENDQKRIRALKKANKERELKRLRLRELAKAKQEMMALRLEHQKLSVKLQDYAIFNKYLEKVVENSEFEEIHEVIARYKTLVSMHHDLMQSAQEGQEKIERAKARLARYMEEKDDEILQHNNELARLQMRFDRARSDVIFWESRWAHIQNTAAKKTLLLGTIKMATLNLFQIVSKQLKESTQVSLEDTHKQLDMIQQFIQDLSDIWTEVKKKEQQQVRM

binding [1]: no binding
Molecule: IFT20, FLAG-tagged (from UniProt Q61025 1-132)

binding [2]: binds | binding [3]: binds
B1: cilia and flagella associated protein 53 (CFAP53), MYC-tagged (protein, UniProt Q9D439 1-514)
chain: T1 sequence

— PMC8195676
